Results are given in words; binding and its absence hold for the method and conditions named. In cells and extracts the contact can be indirect.
Assays:
[1] = target: T1, mKvβ2.1CFP (mouse) (UniProt P62482); assay: co-IP; lysates of HEK 293 cells transfected with Kvβ1.1CFP or Kvβ2.1CFP (150 mM NaCl, 50 mM HEPES, 1% Triton X-100, pH 7.4); anti-GFP antibody crosslinked to protein A Sepharose, 2 h at RT; immunoblot against the endogenous partner
T1 sequence: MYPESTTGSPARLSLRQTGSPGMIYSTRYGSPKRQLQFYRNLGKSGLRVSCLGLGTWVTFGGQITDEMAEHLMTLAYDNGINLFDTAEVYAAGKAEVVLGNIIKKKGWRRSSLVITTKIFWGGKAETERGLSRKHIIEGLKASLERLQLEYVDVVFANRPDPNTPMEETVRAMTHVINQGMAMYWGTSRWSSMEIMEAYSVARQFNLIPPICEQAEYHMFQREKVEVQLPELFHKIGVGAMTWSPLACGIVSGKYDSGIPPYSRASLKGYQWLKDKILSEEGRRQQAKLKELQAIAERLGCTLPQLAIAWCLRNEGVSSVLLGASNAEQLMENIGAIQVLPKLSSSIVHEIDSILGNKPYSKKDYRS

[2] = target: T2, mKvβ1.1CFP (mouse) (UniProt P63143); assay: as above
T2 sequence: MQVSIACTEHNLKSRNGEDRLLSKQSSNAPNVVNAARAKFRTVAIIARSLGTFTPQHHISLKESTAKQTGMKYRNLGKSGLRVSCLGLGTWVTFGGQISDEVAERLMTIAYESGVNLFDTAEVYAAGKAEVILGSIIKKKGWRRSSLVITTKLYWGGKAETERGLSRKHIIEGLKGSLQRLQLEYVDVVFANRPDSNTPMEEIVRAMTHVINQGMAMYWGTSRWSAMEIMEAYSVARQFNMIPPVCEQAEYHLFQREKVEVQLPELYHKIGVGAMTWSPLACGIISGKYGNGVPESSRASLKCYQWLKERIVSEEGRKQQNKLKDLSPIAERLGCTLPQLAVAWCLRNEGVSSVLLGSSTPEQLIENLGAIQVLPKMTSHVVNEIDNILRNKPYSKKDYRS

binding [1]: no binding
binding [2]: no binding
Substance: caveolin (human (endogenous in HEK 293))

— PMC8994742
